The source of these data is PubChem BioAssay AID182 (DTP/NCI, 2004).

The list does not hold the whole screen: it is rich in T/C values a quarter to a half above the control, in often repeated tests (any T/C) and in doses without a T/C. Further doses and runs are listed elsewhere. T/C gives the treated animals as a percentage of the vehicle group. Some doses have a count of surviving animals in place of a T/C: the source files T/C as zero there, which appears to mark a toxic dose or a test without result, not a measured value. Some survivor counts are full or nearly so, which does not show that the dose was tolerated: the source hardly ever lists a survival T/C far under the control, and the zero likely stands for such cases as well. Counts of survivors are from the toxicity check (mostly the fifth day) where no day follows; animals may have died later. Schedule codes are those of the source, taken here to give the interval after Q, in days (D) or hours (H), and the number of doses after X.

In the assay the test system is BDF1 mice, P388/ADR leukemia ip, median survival T/C. Kind of assay: NCI In Vivo Anticancer Drug Screen. Data for tumor model P388 Leukemia resistant to Adriamycin; NSC 123127, Developed at Scr 06 and 41 (intraperitoneal) in B6D2F1 (BDF1) mice. Particulars: T/C endpoint: median survival time, higher T/C = longer survival. As to the method: The antitumor activity of compounds was measured in mice bearing transplantable tumors. Survival or tumor size were measured and the results are expressed as the measurement made in the treated group (T) divided by the measurement made in the vehicle treated control group (C). The tumor model used in this assay is P388 Leukemia resistant to Adriamycin; NSC 123127, Developed at Scr 06 and 41 (intraperitoneal) in B6D2F1 (BDF1) mice

On to `CC1OC(O[C@H]2/C=C/C=C/C=C/C=C/C=C/C=C/C=C/[C@H](C)[C@@H](O)[C@@H](C)[C@H](C)OC(=O)C[C@H](O)C[C@H](O)CC[C@@H](O)[C@H](O)C[C@H](O)C[C@]3(O)C[C@H](O)[C@@H](C(=O)O)[C@H](C2)O3)C(O)C(N)C1O` (some centres not stated), for which the survivor count reads like this: (dose: 40.0 mg/kg/injection, schedule: Q04DX003 (ip), vehicle: clinical formulation) 8 of 8; (dose: 80.0 mg/kg/injection, schedule: Q04DX003 (ip), vehicle: clinical formulation) 2 of 8.

In the case of `CO[C@H](C(=O)[C@@H](O)[C@@H](C)O)[C@@H]1Cc2cc3cc(OC4CC(OC5CC(O)C(O)C(C)O5)C(O)C(C)O4)c(C)c(O)c3c(O)c2C(=O)[C@H]1OC1CC(OC2CC(OC3CC(C)(O)C(O)C(C)O3)C(O)C(C)O2)C(O)C(C)O1` (some centres not stated), the survivor count runs as follows: (dose: 0.9 mg/kg/injection, schedule: Q01DX005 (ip), vehicle: water) 8 of 8; (dose: 1.08 mg/kg/injection, schedule: Q04DX003 (ip), vehicle: water) 7 of 8; (dose: 1.5 mg/kg/injection, schedule: Q01DX005 (ip), vehicle: water) 2 of 8; (dose: 1.8 mg/kg/injection, schedule: Q04DX003 (ip), vehicle: water) 5 of 8; (dose: 3.0 mg/kg/injection, schedule: Q04DX003 (ip), vehicle: water) 2 of 7.
